# At least one compound was matched to its structure with a doubt left.
# Experiments:
# [1] = tested on: breast cancer BR-05-0044E; type: in vivo, mouse
# Method: Test Objective: The in vivo efficacy of the test compound was evaluated in a subcutaneous xenograft tumor model of breast cancer BR-05-0044E in NOD SCID mice.
# Experimental Animals: Female NOD SCID mice, 6-8 weeks old, weighing 18-20 grams were provided by Beijing Charles River Laboratory Animal Technology Co., Ltd. The animals were acclimated in the experimental environment for 3-7 days before the experiment. The animals were housed in SPF-grade animal rooms in IVC cages (individually ventilated cages) with 4 mice per cage. All cages, bedding, and drinking water were sterilized before use. Cages, feed, and water were changed twice a week. The housing environment and lighting conditions were as follows: temperature: 20-26° C., humidity: 40-70%, light cycle: 12 hours light, 12 hours dark.
# PDX Model Establishment: The human breast cancer BR-05-0044E model was initially derived from clinical samples surgically removed. After tumor tissue was expanded in mice, 20-30 mm^3 BR-05-0044E tumor tissue blocks were subcutaneously implanted into the right flank of each mouse. Tumor growth was monitored, and when the average tumor volume reached approximately 150-200 mm^3, the mice were randomly grouped for administration. Animals were weighed, and tumor volume was measured before administration. […]
# Experimental Groups: The experiment was divided into the following groups: 1. […] Routine checks included observing tumor growth and the impact of drug treatment on the animals' daily behavior (such as activity, food and water intake, body weight changes (measured twice a week), appearance, or other abnormalities). The animal number of deaths and side effects in each group were recorded.
# Experimental Indicators: The experimental indicators were to assess whether tumor growth was inhibited, delayed, or cured. Tumor diameter was measured twice a week with calipers. Tumor volume was calculated using the formula: V=0.5a×b^2, where a and b represent the tumor's length and width, respectively.
# The efficacy of the compound on inhibiting tumor was evaluated by tumor volume and tumor growth inhibition rate (TGI). […]
# [2] = tested on: human breast cancer (MDA-MB-436) cell line; assay: Mouse CDX tumor model (MDA-MB-436 subcutaneous xenograft); type: in vivo
# Method: Test Objective: The efficacy of the compounds was evaluated in a subcutaneous xenograft model of human breast cancer (MDA-MB-436) cell line in mice.
# Test Compounds: Olaparib, Compound 1
# Experimental Animals: Female NOD SCID mice, 4-5 weeks old, purchased from Nanjing Jicui.
# Housing and Management: The experimental animals were housed in SPF-grade, temperature- and humidity-controlled clean rooms, using individually ventilated cages (IVC) with no more than 5 mice per cage. Temperature/humidity was controlled within the range of (23±3)° C./40-70%. Feed and water: SPF-grade mouse feed, sterilized by cobalt-60 irradiation. Drinking water was ultrafiltered and autoclaved. Animals had free access to sterile food and water. Animal identification: ear tags.
# Tumor Cell Line and Tumor Model: MDA-MB-436 cells (Nanjing Cobioer Biotechnology Co., Ltd., Cat. No: CBP60385) were cultured in vitro in DMEM complete medium containing 10% fetal bovine serum, 1% penicillin-streptomycin, 1% insulin, and 16 μg/mL glutathione (37° C., 5% CO2). When the cells met the requirements for the in vivo efficacy experiment, they were collected, counted, and prepared into a PBS cell suspension. Each mouse (5-6 weeks old NOD SCID) was inoculated subcutaneously on the right flank with 0.9×10^7 cells. Tumor volume was measured and calculated three times a week after inoculation. When the tumor volume reached approximately 200-300 mm^3, the mice were grouped for administration.
# Experimental Groups: The experiment was divided into the following groups: vehicle control group; Olaparib 100 mg/kg group; Compound 1 0.1 mg/kg group; Compound 1 0.3 mg/kg group; and Compound 1 1.0 mg/kg group. All groups were administered orally by gavage once daily. […] After 28 days of administration, the tumor volume was used to calculate the tumor growth inhibition rate (TGI %), and the tumor inhibition effect was statistically analyzed using software such as Excel, etc.
# [3] = 0.1, 0.3, 1.0 mg/kg oral once daily for 21 days
structure (smiles),measurement,setting,value
"CNC(=O)c1ccc(N2CCN(Cc3cnc4c(C)c(C(F)(F)F)c(=O)[nH]c4c3)CC2)cn1 [Compound 1, N-methyl-5-(4-((8-methyl-6-oxo-7-(trifluoromethyl)-5,6-dihydro-1,5-naphthyridin-3-yl)methyl)piperazin-1-yl)picolinamide]",Tumor growth (in words),[1]; [3],completely inhibited tumor growth
same,Tumors in the mice of the treatment group,[1]; [3],completely disappeared
same,Tumor growth during observation after end of administration,[1]; additional 2 weeks after end of administration,no tumor growth was observed
same,Tumor growth (in words),"[2]; 0.3 mg/kg and 1.0 mg/kg, after 28 days of treatment",completely inhibited tumor growth
same,"Inhibition of tumor growth, dose relation","[2]; 0.1, 0.3, 1.0 mg/kg",dose-dependent inhibition of tumor growth
same,Tumor inhibition effect compared with Olaparib at 100 mg/kg,[2]; Compound 1 at 0.1 mg/kg,comparable
